Some of these results come from one statement about several compounds together.
Experiments:
KRas G12D [1] = biological target: T1, KRas G12D (Homo sapiens, UniProt P01116, G12D); assay: PANC-1 Cellular Active RAS GTPase ELISA (KRas G12D Mutation); format: cell-based; settings: PANC-1 cells, 2 hours; read-out: relative IC50, inhibition of constitutive RAS GTPase activity (KRas G12D mutant)
T1 construct: host or cells: PANC-1

By UniProt entry, the sequences of proteins in these tests, tags left out. Residues count along the entry.
UniProt P01116, 1-188 isoform P01116-2 G12D: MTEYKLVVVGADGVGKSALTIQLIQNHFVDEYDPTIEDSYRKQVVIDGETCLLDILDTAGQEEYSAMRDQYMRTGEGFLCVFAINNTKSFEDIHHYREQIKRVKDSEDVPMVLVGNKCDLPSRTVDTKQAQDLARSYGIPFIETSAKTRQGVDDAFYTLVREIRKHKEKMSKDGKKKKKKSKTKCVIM
UniProt P01116, 1-188 isoform P01116-2 G12C: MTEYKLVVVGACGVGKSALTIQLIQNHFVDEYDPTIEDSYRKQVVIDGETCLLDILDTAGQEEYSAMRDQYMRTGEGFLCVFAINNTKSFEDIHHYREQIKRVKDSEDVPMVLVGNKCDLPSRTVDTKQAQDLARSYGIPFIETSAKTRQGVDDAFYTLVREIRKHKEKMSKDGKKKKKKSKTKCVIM

KRas G12D [2] = biological target: T1, KRas G12D; assay: Cellular Phospho-ERK AlphaLISA, HPAC cells (KRAS G12D); format: cell-based; settings: 2 h, read-out: relative IC50, reduction of phosphorylated ERK-1/2 in cells expressing KRAS G12D
KRAS G12C = biological target: T2, KRAS G12C (Homo sapiens, UniProt P01116, G12C); assay: Cellular Phospho-ERK AlphaLISA, NCI-1373 cells (KRAS G12C); format: cell-based; settings: 2 h, read-out: relative IC50, reduction of phosphorylated ERK-1/2 in cells expressing KRAS G12C
T2 construct: endogenous in cells; host or cells: NCI-1373

NRAS = NRAS (Homo sapiens, UniProt P01111); assay: Cellular Phospho-ERK AlphaLISA, MEF-NRAS cells (RAS-less MEFs expressing NRAS only); format: cell-based, mouse; settings: 2 h, read-out: relative IC50, phospho-ERK, MEF-NRAS
HRAS = HRAS (Homo sapiens, UniProt P01112); assay: Cellular Phospho-ERK AlphaLISA, MEF-HRAS cells (RAS-less MEFs expressing HRAS only); format: cell-based, mouse; settings: 2 h, read-out: relative IC50, phospho-ERK, MEF-HRAS

| Compound | IC50 (KRas G12D [1]) [nM] | IC50 (KRas G12D [2]) [nM] | IC50 (KRAS G12C) [nM] | IC50 (NRAS) [nM] | IC50 (HRAS) [nM] |
| --- | --- | --- | --- | --- | --- |
| CO[C@H](C)CN1CC2CCC(C1)N2c1nc(OC[C@@]23CCCN2C[C@H](F)C3)nc2c(F)c(-c3cccc4sc(N)c(C#N)c34)c3c(c12)COC3 [Example 213, 2-Amino-4-[5-fluoro-3-[[(2R,8S)-2-fluoro-1,2,3,5,6,7-hexahydropyrrolizin-8-yl]methoxy]-1-[3-[(2R)-2-methoxypropyl]-3,8-diazabicyclo[3.2.1]octan-8-yl]-7,9-dihydrofuro[3,4-f]quinazolin-6-yl]benzothiophene-3-carbonitrile] | < 100 | < 500 | < 500 | > 2000 | > 2000 |
| C[C@@H](O)CN1CC2CCC(C1)N2c1nc(OC[C@@]23CCCN2C[C@H](F)C3)nc2cc(-c3cccc4sc(N)c(C#N)c34)c3c(c12)COC3 [Example 175, 2-Amino-4-[3-[[(2R,8S)-2-fluoro-1,2,3,5,6,7-hexahydropyrrolizin-8-yl]methoxy]-1-[3-[(2R)-2-hydroxypropyl]-3,8-diazabicyclo[3.2.1]octan-8-yl]-7,9-dihydrofuro[3,4-f]quinazolin-6-yl]benzothiophene-3-carbonitrile] | < 100 | < 500 | – | > 2000 | > 2000 |
| COCCOCCN1CC2CCC(C1)N2c1nc(OC[C@@]23CCCN2C[C@H](F)C3)nc2c(F)c(-c3ncc(F)c4sc(N)c(C#N)c34)c3c(c12)COC3 [Example 220, 2-Amino-7-fluoro-4-[5-fluoro-3-[[(2R,8S)-2-fluoro-1,2,3,5,6,7-hexahydropyrrolizin-8-yl]methoxy]-1-[3-[2-(2-methoxyethoxy)ethyl]-3,8-diazabicyclo[3.2.1]octan-8-yl]-7,9-dihydrofuro[3,4-f]quinazolin-6-yl]thieno[3,2-c]pyridine-3-carbonitrile] | < 100 | < 500 | – | > 2000 | > 2000 |
| COCCN1CC2CCC(C1)N2c1nc(OC[C@@]23CCCN2C[C@H](OC)C3)nc2c(F)c(-c3ncc(F)c4sc(N)c(C#N)c34)c3c(c12)COC3 [Example 233, 2-Amino-7-fluoro-4-[5-fluoro-1-[3-(2-methoxyethyl)-3,8-diazabicyclo[3.2.1]octan-8-yl]-3-[[(2R,8S)-2-methoxy-1,2,3,5,6,7-hexahydropyrrolizin-8-yl]methoxy]-7,9-dihydrofuro[3,4-f]quinazolin-6-yl]thieno[3,2-c]pyridine-3-carbonitrile] | < 100 | < 500 | – | > 2000 | > 2000 |
| C[C@@H](O)CN1C[C@H]2C[C@@H]1CN2c1nc(OC[C@@]23CCCN2C[C@H](F)C3)nc2c(F)c(-c3c(F)ccc4oc(N)c(C#N)c34)c3c(c12)COC3 [Example 188, 2-Amino-5-fluoro-4-[5-fluoro-3-[[(2R,8S)-2-fluoro-1,2,3,5,6,7-hexahydropyrrolizin-8-yl]methoxy]-1-[(1R,4R)-5-[(2R)-2-hydroxypropyl]-2,5-diazabicyclo[2.2.1]heptan-2-yl]-7,9-dihydrofuro[3,4-f]quinazolin-6-yl]benzofuran-3-carbonitrile] | < 100 | < 500 | – | > 2000 | > 2000 |
| C[C@@H](O)CN1CC2CCC(C1)N2c1nc(OC[C@@]23CCCN2C[C@H](F)C3)nc2c(F)c(-c3ncc(F)c4sc(N)c(C#N)c34)c3c(c12)COC3 [Example 172, 2-Amino-7-fluoro-4-[5-fluoro-3-[[(2R,8S)-2-fluoro-1,2,3,5,6,7-hexahydropyrrolizin-8-yl]methoxy]-1-[3-[(2R)-2-hydroxypropyl]-3,8-diazabicyclo[3.2.1]octan-8-yl]-7,9-dihydrofuro[3,4-f]quinazolin-6-yl]thieno[3,2-c]pyridine-3-carbonitrile] | < 100 | – | < 500 | > 2000 | > 2000 |
| COCCCN1CC2CCC(C1)N2c1nc(OCC23CCCN2CC(OC)C3)nc2c(F)c(-c3ncc(F)c4sc(N)c(C#N)c34)c3c(c12)COC3 (centres unmarked) [Example 229, 2-Amino-7-fluoro-4-[5-fluoro-3-[(2-methoxy-1,2,3,5,6,7-hexahydropyrrolizin-8-yl)methoxy]-1-[3-(3-methoxypropyl)-3,8-diazabicyclo[3.2.1]octan-8-yl]-7,9-dihydrofuro[3,4-f]quinazolin-6-yl]thieno[3,2-c]pyridine-3-carbonitrile] | < 100 | < 500 | – | > 2000 | > 2000 |
| N#Cc1c(N)sc2c(F)cnc(-c3c4c(c5c(N6C7CCC6CN(CCOC(F)(F)F)C7)nc(OC[C@@]67CCCN6C[C@H](F)C7)nc5c3F)COC4)c12 [Example 193, 2-Amino-7-fluoro-4-[5-fluoro-3-[[(2R,8S)-2-fluoro-1,2,3,5,6,7-hexahydropyrrolizin-8-yl]methoxy]-1-[3-[2-(trifluoromethoxy)ethyl]-3,8-diazabicyclo[3.2.1]octan-8-yl]-7,9-dihydrofuro[3,4-f]quinazolin-6-yl]thieno[3,2-c]pyridine-3-carbonitrile] | – | < 500 | – | > 2000 | > 2000 |
| N#Cc1c(N)sc2c(F)ccc(-c3c4c(c5c(N6C7CCC6CN(CC6COC6)C7)nc(OC[C@@]67CCCN6C[C@H](F)C7)nc5c3F)COC4)c12 (single isomer, unassigned) [Example 106] | – | < 500 | < 500 | > 2000 | > 2000 |
| CN1CCC[C@H]1COc1ncc2c3c(c(-c4ccc(F)c5sc(N)c(C#N)c45)c(Cl)c2n1)COC3 (single isomer, unassigned; isomer 2) [Example 208] | – | – | < 500 | – | – |
| COC1CN2CCCC2(COc2nc(N3C4CCC3CN(C[C@H]3CCO3)C4)c3c4c(c(-c5ncc(F)c6sc(N)c(C#N)c56)c(F)c3n2)COC4)C1.CS(=O)(=O)O (stereo partly drawn) [Example 231, 2-Amino-7-fluoro-4-[5-fluoro-3-[(2-methoxy-1,2,3,5,6,7-hexahydropyrrolizin-8-yl)methoxy]-1-[3-[[(2R)-oxetan-2-yl]methyl]-3,8-diazabicyclo[3.2.1]octan-8-yl]-7,9-dihydrofuro[3,4-f]quinazolin-6-yl]thieno[3,2-c]pyridine-3-carbonitrile methanesulfonic acid] | < 100 | < 500 | – | > 2000 | > 2000 |
| N#Cc1c(N)oc2cccc(-c3c4c(c5c(N6C7CCC6CNC7)nc(OC[C@@]67CCCN6C[C@H](F)C7)nc5c3F)COC4)c12 [Example 14, 2-Amino-4-[1-(3,8-diazabicyclo[3.2.1]octan-8-yl)-5-fluoro-3-[[(2R,8S)-2-fluoro-1,2,3,5,6,7-hexahydropyrrolizin-8-yl]methoxy]-7,9-dihydrofuro[3,4-f]quinazolin-6-yl]benzofuran-3-carbonitrile] | < 100 | < 500 | – | > 2000 | > 2000 |
| N#Cc1c(N)sc2ccc(F)c(-c3c4c(c5c(N6C7CCC6CN(CCCO)C7)ncnc5c3F)COC4)c12 (single isomer, unassigned) [Example 49, 2-Amino-5-fluoro-4-[5-fluoro-1-[3-(3-hydroxypropyl)-3,8-diazabicyclo[3.2.1]octan-8-yl]-7,9-dihydrofuro[3,4-f]quinazolin-6-yl]benzothiophene-3-carbonitrile] | < 100 | – | – | > 2000 | > 2000 |
| N#Cc1c(N)sc2ccc(F)c(-c3c4c(c5c(N6C7CCC6CN(CCCO)C7)nc(OC[C@H]6COCCO6)nc5c3F)COC4)c12 (single isomer, unassigned) [Example 142] | < 100 | – | – | > 2000 | > 2000 |
| N#Cc1c(N)sc2c(F)cnc(-c3c4c(c5c(N6C7CCC6CN(CC6COC6)C7)nc(OC[C@@]67CCCN6C[C@H](F)C7)nc5c3F)COC4)c12 [Example 130, 2-Amino-7-fluoro-4-[5-fluoro-3-[[(2R,8S)-2-fluoro-1,2,3,5,6,7-hexahydropyrrolizin-8-yl]methoxy]-1-[3-(oxetan-3-ylmethyl)-3,8-diazabicyclo[3.2.1]octan-8-yl]-7,9-dihydrofuro[3,4-f]quinazolin-6-yl]thieno[3,2-c]pyridine-3-carbonitrile] | < 100 | – | – | > 2000 | > 2000 |
| COCCCN1CC2CCC(C1)N2c1nc(OC[C@@]23CCCN2C[C@H](F)C3)nc2c(F)c(-c3ncc(F)c4sc(N)c(C#N)c34)c3c(c12)COC3 [Example 122, 2-Amino-7-fluoro-4-[5-fluoro-3-[[(2R,8S)-2-fluoro-1,2,3,5,6,7-hexahydropyrrolizin-8-yl]methoxy]-1-[3-(3-methoxypropyl)-3,8-diazabicyclo[3.2.1]octan-8-yl]-7,9-dihydrofuro[3,4-f]quinazolin-6-yl]thieno[3,2-c]pyridine-3-carbonitrile] | < 100 | – | – | > 2000 | > 2000 |
| COCCN1CC2CCC(C1)N2c1nc(OC[C@@]23CCCN2C[C@H](F)C3)nc2c(F)c(-c3ncc(F)c4sc(N)c(C#N)c34)c3c(c12)COC3 [Example 124, 2-Amino-7-fluoro-4-[5-fluoro-3-[[(2R,8S)-2-fluoro-1,2,3,5,6,7-hexahydropyrrolizin-8-yl]methoxy]-1-[3-(2-methoxyethyl)-3,8-diazabicyclo[3.2.1]octan-8-yl]-7,9-dihydrofuro[3,4-f]quinazolin-6-yl]thieno[3,2-c]pyridine-3-carbonitrile] | < 100 | – | – | > 2000 | > 2000 |
| CN1CCC[C@H]1COc1ncc2c3c(c(-c4ccc(F)c5sc(N)c(C#N)c45)c(Cl)c2n1)COC3 [Example 206, 2-Amino-4-[5-chloro-3-[[(2S)-1-methylpyrrolidin-2-yl]methoxy]-7,9-dihydrofuro[3,4-f]quinazolin-6-yl]-7-fluoro-benzothiophene-3-carbonitrile] | < 100 | – | < 500 | – | – |

Reference: patent US12351591B2, “KRas inhibitors” (ELI LILLY AND COMPANY, priority 2022, dated 2025)
